Data: PubChem BioAssay AID540303 (National Center for Advancing Translational Sciences (NCATS), 2011)
In all, about 330,000 compounds went through this assay and about 1,000 (0.3%) were called active. The inconclusive results got no clear call from the source; some entries with a clear call stand among them for comparison. Calls follow the shape of the dose curve; as a rule, active = well fitted inhibition curve with a large enough effect; inconclusive = small, poorly fitted or top-dose-only effect; inactive = no such curve, though single readings can be large or run the other way; tested in mouse RAW 264.7 cells. A potency beside an inconclusive call is a rough fit, not a confirmed value.

Experiment: qHTS for Inhibitors of Cell Surface uPA Generation; also: nearly all actives have a fitted effect of over 55% in size
Settings: cell surface uPA generation assay; series mostly up to 38.3 µM
In short: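 Using RAW 264.7 macrophages, the screen measures whether compounds keep cellular ATP up by preventing uPA-driven LF translocation. Treatment lasted 24 h at 37 C, with a final top concentration of 38.3 uM, and luminescence was the readout.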
Potency is read from the fitted curve at half-maximal effect.

Which Potency does the source give for `c1csc(Cc2nn3c(-c4n[nH]c5c4CCC5)nnc3s2)c1` here?
Its Potency is “inactive”.

For `Cc1ccc(S(=O)(=O)N2CCN(C(=O)c3cc(S(=O)(=O)N4CCOCC4)ccc3Cl)CC2)c(C)c1`, which Potency is on record?
The Potency was inconclusive: 12.6 µM [inhibitor, single point].

Which Potency does the source give for `COc1ccc(NC(=O)CN(C)C(=O)c2cc(-c3ccc(C)o3)nc3ccccc23)cc1` here?
Its Potency is inconclusive: 7.08 µM [inhibitor, partial curve, poor fit].

Which Potency does the source give for `COc1ccc(-n2ncc3c2CC(C)(C)CC3NC(=O)CN2CCOC2=O)cc1` (stereo not drawn) here?
The Potency was inconclusive: 3.98 µM [inhibitor, full curve, poor fit].

With `CCOC(=O)C1C(=O)C=C(/C=C/c2ccc(N(C)C)cc2)CC1c1ccccc1` (stereo not drawn) as the molecule, how does the Potency read?
The Potency was “inactive”.

For `CCOC(=O)c1c(C)[nH]c(C(=O)COC(=O)c2ccc(F)c(S(=O)(=O)N3CCOCC3)c2)c1C`, which Potency is on record?
The Potency was “inactive”.

For `CC1CN(S(=O)(=O)c2ccc(C(=O)Nc3nnc(-c4ccc5c(c4)CCCC5)o3)cc2)CC(C)O1` (stereo not drawn), which Potency is on record?
Its Potency is inconclusive: 6.31 µM [inhibitor, partial curve, poor fit].

Which Potency does the source give for `CC1(C)C=Cc2c(c3c(c4c(=O)c(-c5ccc(O)cc5)coc24)OC(C)(C)CC3)O1` here?
Its Potency is inconclusive: 12.6 µM [inhibitor, single point].

With `CC(C)(C)c1cc(CCC(=O)NCCc2ccccn2)cc(C(C)(C)C)c1O` as the molecule, how does the Potency read?
Its Potency is “inactive”.

Which Potency does the source give for `O=C(O)C(=O)/C(=C\c1ccc([N+](=O)[O-])cc1)c1ccc2ccccc2n1` here?
The Potency was “inactive”.

For `O=C(c1ccccc1)N1CCC(CC2CC(c3cccc(Br)c3)=NO2)(C(=O)NCC2CCCCC2)CC1` (stereo not drawn), which Potency is on record?
The Potency was inconclusive: 10 µM [inhibitor, single point].

With `CC(=O)Nc1ccc(S(=O)(=O)NCCC(=O)NC(C)c2cccs2)cc1` (stereo not drawn) as the molecule, how does the Potency read?
The Potency was “inactive”.

Which Potency does the source give for `O=C(Nc1cc(S(=O)(=O)N2CCCCC2)ccc1Oc1ccccc1)C1=COCCO1` here?
Its Potency is “inactive”.

Which Potency does the source give for `CC1CCC(NC(=O)CCS(=O)(=O)c2ccc3c(c2)CC(C)N3C(=O)C2CC2)CC1` (stereo not drawn) here?
Its Potency is inconclusive: 12.6 µM [inhibitor, partial curve, poor fit].

With `c1ccc(-c2cn3c(n2)-c2ccccc2C3)cc1` as the molecule, how does the Potency read?
Its Potency is active: 6.31 µM.

Which Potency does the source give for `O=C(Cc1ccc(F)cc1)Nc1nnc(-c2ccc(F)cc2)o1` here?
The Potency was “inactive”.

With `CC1CC1C(=O)N1CCN(S(=O)(=O)c2cc(C(F)(F)F)cc(C(F)(F)F)c2)CC1` (stereo not drawn) as the molecule, how does the Potency read?
The Potency was “inactive”.

With `CCN(CC)CCNC(=S)NC(=O)c1cn(-c2ccccc2)nc1-c1ccc(OC)cc1` as the molecule, how does the Potency read?
The Potency was inconclusive: 14.1 µM [inhibitor, partial curve, poor fit].

With `CC(=O)NC(c1cc(F)c2cccnc2c1O)C1CC1` (stereo not drawn) as the molecule, how does the Potency read?
Its Potency is inconclusive: 12.6 µM [inhibitor, single point].

Which Potency does the source give for `COc1ccc(OCC(=O)Nc2ccccc2C(=O)Nc2ccc(C(=O)O)cc2)cc1` here?
Its Potency is inconclusive: 5.62 µM [inhibitor, partial curve, poor fit].

Which Potency does the source give for `COc1ccc(/C=C/c2nnc(NC(=O)c3ccco3)s2)cc1` here?
The Potency was inconclusive: 7.08 µM [inhibitor, partial curve, poor fit].

With `C=CCNc1ncnc2c1cnn2-c1cccc(C)c1` as the molecule, how does the Potency read?
The Potency was inconclusive: 11.2 µM [inhibitor, single point].

For `Clc1ccc(/C=C/c2ncc3ccccn23)cc1`, which Potency is on record?
Its Potency is “inactive”.

With `Cc1nc(COc2ccc(C(=O)NCc3ccccc3CN3CCCCC3)cc2)cs1` as the molecule, how does the Potency read?
Its Potency is inconclusive: 10 µM [inhibitor, single point].

With `CC(Nc1nc(-c2ccc(F)cc2)cs1)c1nc2cc(Cl)c(N3CCCCC3)cc2n1CCCO` (stereo not drawn) as the molecule, how does the Potency read?
The Potency was inconclusive: 12.6 µM [inhibitor, single point].

For `COc1ccc(C2=Nc3ccccc3OC2)cc1`, which Potency is on record?
The Potency was “inactive”.

Which Potency does the source give for `Cc1cc(Br)cc2c(C(=O)Nc3c(C)n(C)n(-c4ccccc4)c3=O)cc(-c3cccs3)nc12` here?
The Potency was inconclusive: 11.2 µM [inhibitor, single point].

With `CC/C(=N/NC(=O)c1ccc2c(c1)OCO2)c1ccccc1O` as the molecule, how does the Potency read?
Its Potency is inconclusive: 4.47 µM [inhibitor, partial curve, poor fit].

For `COCCn1ccc2c(OCC(=O)NCc3ccc(C)cc3)cccc2c1=O`, which Potency is on record?
Its Potency is inconclusive: 8.91 µM [inhibitor, partial curve, poor fit].

Which Potency does the source give for `COc1cc(NS(=O)(=O)c2c(C)oc3c(F)c(F)c(F)c(F)c23)cc(OC)c1OC` here?
Its Potency is “inactive”.

For `CCCCCC(=O)N1CC2(CC)CN(C(=O)CCCCC)CC(CC)(C1)C2=O`, which Potency is on record?
Its Potency is “inactive”.

For `Cc1oc2c(c1C(=O)N1CCC(C)CC1)C(=O)c1ccccc1C2=O`, which Potency is on record?
Its Potency is active: 10 µM.

For `Cc1ccc2nc(-c3cccc(-c4cccc(Cl)c4)c3)c(NCc3ccccc3)n2c1`, which Potency is on record?
Its Potency is inconclusive: 28.2 µM [inhibitor, single point].

For `C[C@@]12CCC=C[C@H]1[C@H](c1ccc3ccccc3c1Br)N(Cc1ccccc1)C2=O`, which Potency is on record?
Its Potency is inconclusive: 12.6 µM [inhibitor, single point].

Which Potency does the source give for `Cc1ccc(-n2nnc(-c3cccnc3)n2)cc1` here?
The Potency was inconclusive: 10 µM [inhibitor, partial curve, poor fit].

Which Potency does the source give for `Cc1cccc(C)c1OCc1cc(C(=O)NCC2COCCO2)no1` (stereo not drawn) here?
Its Potency is inconclusive: 7.94 µM [inhibitor, single point].

With `O=C(CCC1CCCCC1)Nc1ccc(C(=O)c2ccncc2)cc1` as the molecule, how does the Potency read?
Its Potency is “inactive”.

With `Cc1ccc(-c2nc(-c3ccncc3)no2)c(C)c1` as the molecule, how does the Potency read?
The Potency was inconclusive: 10 µM [inhibitor, single point].

With `CN1c2ccccc2-c2nc3ccccc3n2C1c1cccs1` (stereo not drawn) as the molecule, how does the Potency read?
The Potency was “inactive”.

For `CCOC(=O)COc1cccc2c(=O)n(CC(=O)N3CCC(C)CC3)ccc12`, which Potency is on record?
The Potency was inconclusive: 1.41 µM [inhibitor, full curve, poor fit].

With `CCn1ncc([N+](=O)[O-])c1C(=O)Nc1ccc(C)c(C)c1` as the molecule, how does the Potency read?
The Potency was inconclusive: 0.316 µM [inhibitor, full curve, poor fit].

For `O=C(Nc1ccc(Br)c2ccccc12)c1ccc2ccccc2c1O`, which Potency is on record?
The Potency was inconclusive: 12.6 µM [inhibitor, single point].

Which Potency does the source give for `Nc1c(/C=C2/C=CC(=O)C(O)=C2)c(=O)nc2sc(CC(=O)N3CCCC3)nn12` here?
Its Potency is inconclusive: 7.94 µM [inhibitor, partial curve, poor fit].
